Experimental findings from PubChem BioAssay AID2685 (National Center for Advancing Translational Sciences (NCATS), 2010) are described below.

The structures appear in SMILES notation. This is one part of the list. These are further read-outs of the screen, such as a control signal, another cell line or another target. No call is given for them. Compounds called inactive in the main read-out are mostly missing here. Potencies come from curve fits of mixed quality, noted in brackets.

By AC50 is commonly meant the concentration at which the activity in the assay is half-maximal. Read a low AC50 as activity at low concentration.

A short description of this experiment: qHTS Assay for Lipid Storage Modulators in Drosophila S3 Cells.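 On cell number change: cells counted by Cell Tracker Red CMTPX staining in the red channel.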 The conditions noted are these: BODIPY lipid droplet fluorescence, 18-24 h; for cell number change: measured here: cell count max response, cells fed with added oleic acid. The essentials: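 Drosophila S3 cells loaded with oleic acid (400 uM, as added) and compounds at several concentrations; lipid droplets imaged by 488-nm laser-scanning cytometry, 500–530 nm intensity and object ratio to cell channel. Percent activity normalized to 20 uM Triacsin C.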
In general terms: In qHTS, concentration-response curves come from the screen itself.

[1] abbreviates: measured here: lipid fluorescence (Fed channel) AC50, cells fed with added oleic acid.
The mark [2] stands for this setting: measured here: cell number channel AC50, cells fed with added oleic acid.

`CCOc1cc(S(=O)(=O)NCc2ccc(OC)cc2)c(OCC)cc1-n1cnnn1`: the cell number change was -18.2%. The AC50 under setting [1] was 18.4 µM [falling, partial curve]. With `COCC1CCN(Cc2nc(Cc3ccccc3Cl)no2)CC1`, the cell number change was 10.4%. In addition, under setting [1], the half-maximal activity concentration (AC50) is 4.61 µM [rising, partial curve]. As to `C/C(CC(=O)Nc1ccc2c(c1)OCCO2)=N\NC(=O)Cc1ccccc1`, the cell number change came to 6.41%. For the molecule `CCN1CCN(Cc2ccc(NC(=O)c3ccc(C)c(NC(=O)c4cccc(-c5cn[nH]c(=O)c5)c4)c3)cc2C(F)(F)F)CC1`, the cell number change was -5.83%. As to `Cc1ccc(NC(=O)N2CCC(C(=O)NCCC3=CCCCC3)CC2)cc1`, the cell number change is -58.5%. Moreover, under setting [2], the AC50 is 2.59 µM [falling, full curve]. Besides, under setting [1], the AC50 was 2.31 µM [falling, full curve]. As for `CCOC(=O)c1ccc(N2C(=O)C(O)=C(C(C)=O)C2c2ccc(O)c(OC)c2)cc1` (stereo not given), the cell number change is 16.7%. Under setting [1], the AC50 was 8.2 µM [falling, partial curve, poor fit]. Take `CC(C)CC(=O)Nc1cccc(-c2csc(-c3ccccc3)n2)c1`: the cell number change is -54.3%. Besides, the AC50 under setting [2] was 20.6 µM [falling, single point].

Turning to `CC(C)[C@H](NC(=O)C1CCN(S(=O)(=O)c2ccccc2)CC1)C(=O)NCc1ccccc1`, the cell number change was determined as 82.7%. Further, the AC50 under setting [2] is 29.1 µM [rising, single point].

In the case of `COc1ccc(OC)c(NC(=O)c2nc(-c3ccccc3)oc2C)c1`, the cell number change is -5%. In addition, the AC50 under setting [1] is 0.103 µM [falling, full curve, poor fit].

As to `COC(=O)C1=C(N)OC2=C(C(=O)CCC2)C1c1ccccc1OC` (stereo not given), the cell number change stood at 3.95%. The AC50 under setting [2] is 0.00517 µM [rising, full curve, poor fit]. Further, the concentration at half-maximal activity (AC50) under setting [1] was 2.06 µM [falling, single point]. Turning to `Clc1ccc(-c2csc(N3CCOCC3)n2)cc1`, the cell number change amounted to 5.74%. For the same molecule, the half-maximal activity concentration (AC50) under setting [2] was 6.51 µM [rising, single point]. Under setting [1], the half-maximal activity concentration (AC50) is 6.51 µM [rising, single point].

For the molecule `O=C1CC(c2ccco2)CC(O)=C1C=NCCO` (stereo not given), the cell number change is 16.6%. For the same molecule, the AC50 under setting [1] is 4.11 µM [falling, partial curve]. Turning to `C=CCSc1nc(O)c(C2OC(=O)c3c2ccc(OC)c3OC)c(=O)n1-c1ccccc1` (stereo not given), the cell number change came to 17.9%. Further, the AC50 under setting [1] was 29.1 µM [rising, single point].

As to `CCOc1ccc(-c2nc(CS(=O)(=O)CC(=O)NCc3ccc(F)cc3)c(C)o2)cc1`, the cell number change came to 40.6%. The concentration at half-maximal activity (AC50) under setting [2] is 18.4 µM [rising, partial curve]. Also, the half-maximal activity concentration (AC50) under setting [1] was 3.26 µM [rising, partial curve, poor fit]. As for `CC(C)Cn1c(SCC(=O)N2CCc3ccccc3C2)nc2cc(Cl)ccc2c1=O`, the cell number change turned out to be 37.3%. For the same molecule, the concentration at half-maximal activity (AC50) under setting [2] was 2.91 µM [rising, full curve]. Besides, under setting [1], the AC50 is 10.3 µM [rising, partial curve]. Take `COc1ccccc1/C=C/CN1CCNC(=O)C1CC(=O)NCCc1cnccn1` (stereo not given): the cell number change turned out to be 3.83%. Moreover, the AC50 under setting [1] is 1.64 µM [falling, partial curve].

Regarding `COCc1cc(C(C)=O)ccc1OCC(=O)Nc1ccc(NC(C)=O)cc1`, the cell number change worked out at 1.71%. Turning to `CC1CCN(c2nc(-c3ccccc3)c(C#N)c(=O)[nH]2)CC1`, the cell number change is 2.36%. Further, under setting [1], the concentration at half-maximal activity (AC50) is 29.1 µM [rising, single point]. With `COc1ccc(NC(=O)c2ccc(OC)cc2)cc1`, the cell number change worked out at 5.89%. Consider `CNc1nc2[nH]c(=O)c3c(c2s1)OC(N)=C(C#N)C3c1ccccc1` (stereo not given), for which the AC50 under setting [1] was 0.116 µM [falling, full curve, poor fit].

As for `CCCCCn1c(=O)[nH]c2cc(C(=O)NCCCN(C)Cc3ccccc3)ccc2c1=O`, the cell number change stood at 6.11%. Besides, the AC50 under setting [2] was 0.103 µM [rising, full curve, poor fit]. Moreover, under setting [1], the AC50 is 0.259 µM [rising, partial curve, poor fit].

Turning to `COc1ccc(CNC2CCCCC2)cc1`, the cell number change was 9.33%.

With `O=c1n(Cc2ccccc2F)c2ccccc2n1Cc1ccccc1F`, the cell number change came to 18.9%. Also, under setting [1], the AC50 is 6.51 µM [rising, single point]. Take `Cc1ccc(S(=O)(=O)N2CCC(=O)N(CCOC(=O)Nc3ccc(C)c(C)c3)CC2)cc1`: the cell number change was 8.92%. In addition, the AC50 under setting [1] was 5.8 µM [rising, partial curve, poor fit]. `CCOC(=O)/C=C/[C@H]1CC2(CCO1)SCCCS2`: the cell number change was -24%. The AC50 under setting [1] was 5.8 µM [rising, partial curve, poor fit]. Consider `Cc1cccc(N2CCN(S(=O)(=O)c3cccc4nonc34)CC2C)c1` (stereo not given), for which the cell number change was 35%. Also, the AC50 under setting [2] was 11.6 µM [rising, partial curve]. Besides, under setting [1], the half-maximal activity concentration (AC50) is 8.2 µM [rising, partial curve]. As for `CC(=O)N1CCc2cc(C(=O)CN3CCN(C(=O)c4ccco4)CC3)ccc21`, the cell number change turned out to be 3.07%. The half-maximal activity concentration (AC50) under setting [1] is 0.146 µM [falling, full curve, poor fit]. In the case of `C/C(=N\NC(=O)c1ccc(O)cc1O)c1cccnc1`, the AC50 under setting [2] was 1.64 µM [falling, partial curve] and the AC50 under setting [1] is 29.1 µM [rising, single point]. For `CCOC(=O)C1CCN(C(=O)c2ccc(Cl)c(NC3=NC4CS(=O)(=O)CC4S3)c2)CC1` (stereo not given), the cell number change is -0.372%. Also, the AC50 under setting [1] is 32.6 µM [falling, single point]. For `O=C(Nc1ccc(S(=O)(=O)NC2CCCCC2)cc1)c1ccc(Br)o1`, the cell number change is -33.6%. Moreover, the half-maximal activity concentration (AC50) under setting [2] is 29.1 µM [falling, single point]. `Fc1ccccc1CN1CCCCCCC1`: the cell number change is -46.9%. In addition, under setting [2], the concentration at half-maximal activity (AC50) is 8.2 µM [falling, partial curve]. For the same molecule, the AC50 under setting [1] was 9.2 µM [falling, partial curve]. In the case of `Cc1cccc(NC(=O)c2ccc3c(c2)OCCO3)c1`, the cell number change worked out at 0.952%. Consider `O=C(NC1CCCCC1)/C(=N\O)c1ccccn1`, for which the cell number change came out at 5.6%. Also, the AC50 under setting [1] was 23.1 µM [falling, partial curve].

As to `O=C(CSc1nnc(Cn2nnc3ccccc32)o1)N(Cc1ccc(F)cc1)c1ccccc1`, the cell number change is -27.9%. Also, the AC50 under setting [1] is 29.1 µM [falling, single point]. Turning to `O=C(NCCN1CCOCC1)C(=O)c1c[nH]c2ccccc12`, the cell number change is -9.13%. Take `Cc1c(Br)c([N+](=O)[O-])nn1CC(=O)NCCc1ccc(Cl)cc1`: the cell number change was determined as 17.5%. As to `CCOc1ccc(C(=O)NCC(=O)NCCOc2ccc(C)cc2)cc1`, the cell number change was -10.4%. Also, the half-maximal activity concentration (AC50) under setting [1] is 29.1 µM [falling, single point]. As for `Cc1nnc(NC(=O)CC(CN(C)S(=O)(=O)c2ccccc2)c2ccccc2)s1` (stereo not given), the cell number change is -14.5%. Moreover, under setting [1], the AC50 was 29.1 µM [falling, single point].
